# Some of the results follow.
# Assays:
# Test in all cases: glycan array binding signal (z-score within array); higher = stronger binding
# Settings in all cases: glycan notation: IUPAC condensed, linker removed
# [1] = target: Gal(b1-3)GlcNAc(b1-6)[Gal(b1-3)]GalNAc
# How it was run: (§1)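 The Consortium for Functional Glycomics database supplied 3228 glycan arrays, of which those lacking an available protein sequence were dropped. The binding signal, a within-array Z-score, was averaged across arrays of the same protein sequence and across linkers. Negative scores can be read as non-binding.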
# Gal(b1-3)GlcNAc6S = target: Gal(b1-3)GlcNAc6S
# How it was run: as §1
# [2] = target: Gal(b1-3)[Fuc(a1-4)]GlcNAc
# How it was run: as §1
# [3] = target: Gal(b1-3)[Fuc(a1-4)]GlcNAc(b1-2)Man
# How it was run: as §1
# [4] = target: Gal(b1-3)[Fuc(a1-4)]GlcNAc(b1-2)Man(a1-3)[Gal(b1-3)[Fuc(a1-4)]GlcNAc(b1-2)Man(a1-6)]Man(b1-4)GlcNAc(b1-4)[Fuc(a1-6)]GlcNAc
# How it was run: as §1
# [5] = target: Gal(b1-3)[Fuc(a1-4)]GlcNAc(b1-3)Gal(b1-3)[Fuc(a1-4)]GlcNAc
# How it was run: as §1
# [6] = target: Gal(b1-3)[Fuc(a1-4)]GlcNAc(b1-3)Gal(b1-4)[Fuc(a1-3)]GlcNAc
# How it was run: as §1
# [7] = target: Gal(b1-3)[Fuc(a1-4)]GlcNAc(b1-6)GalNAc
# How it was run: as §1
# [8] = target: Gal(b1-3)[GlcNAc(b1-6)]GalNAc
# How it was run: as §1
# [9] = target: Gal(b1-3)[Neu5Ac(a2-6)]GalNAc
# How it was run: as §1
# [10] = target: Gal(b1-3)[Neu5Ac(a2-6)]GlcNAc(b1-4)Gal(b1-4)Glc
# How it was run: as §1
# [11] = target: Gal(b1-3)[Neu5Ac(b2-6)]GalNAc
# How it was run: as §1
# Gal(b1-4)Gal = target: Gal(b1-4)Gal
# How it was run: as §1
# [12] = target: Gal(b1-4)GalNAc(a1-3)[Fuc(a1-2)]Gal(b1-4)GlcNAc
# How it was run: as §1
# [13] = target: Gal(b1-4)GalNAc(b1-3)[Fuc(a1-2)]Gal(b1-4)GlcNAc
# How it was run: as §1
# Gal(b1-4)Glc = target: Gal(b1-4)Glc
# How it was run: as §1
# Gal(b1-4)Glc6S = target: Gal(b1-4)Glc6S
# How it was run: as §1
# Gal(b1-4)GlcNAc = target: Gal(b1-4)GlcNAc
# How it was run: as §1
# [14] = target: Gal(b1-4)GlcNAc(a1-6)Gal(b1-4)GlcNAc
# How it was run: as §1
# Gal(b1-4)GlcNAc(b1-2)Man = target: Gal(b1-4)GlcNAc(b1-2)Man
# How it was run: as §1
# [15] = target: Gal(b1-4)GlcNAc(b1-2)Man(a1-3)Man(b1-4)GlcNAc(b1-4)GlcNAc
# How it was run: as §1
# [16] = target: Gal(b1-4)GlcNAc(b1-2)Man(a1-3)[Gal(b1-4)GlcNAc(b1-2)Man(a1-6)]Man(b1-4)GlcNAc(b1-4)GlcNAc
# How it was run: as §1
# [17] = target: Gal(b1-4)GlcNAc(b1-2)Man(a1-3)[Gal(b1-4)GlcNAc(b1-2)Man(a1-6)]Man(b1-4)GlcNAc(b1-4)[Fuc(a1-6)]GlcNAc
# How it was run: as §1
# [18] = target: Gal(b1-4)GlcNAc(b1-2)Man(a1-3)[Gal(b1-4)GlcNAc(b1-2)Man(a1-6)][Gal(b1-4)GlcNAc(b1-4)]Man(b1-4)GlcNAc(b1-4)[Fuc(a1-6)]GlcNAc
# How it was run: as §1
# [19] = target: Gal(b1-4)GlcNAc(b1-2)Man(a1-3)[Gal(b1-4)GlcNAc(b1-2)Man(a1-6)][GlcNAc(b1-4)]Man(b1-4)GlcNAc(b1-4)[Fuc(a1-6)]GlcNAc
# How it was run: as §1
# [20] = target: Gal(b1-4)GlcNAc(b1-2)Man(a1-3)[GlcNAc(b1-2)Man(a1-6)]Man(b1-4)GlcNAc(b1-4)GlcNAc
# How it was run: as §1
# [21] = target: Gal(b1-4)GlcNAc(b1-2)Man(a1-3)[GlcNAc(b1-4)][Gal(b1-4)GlcNAc(b1-2)Man(a1-6)]Man(b1-4)GlcNAc(b1-4)GlcNAc
# How it was run: as §1
# [22] = target: Gal(b1-4)GlcNAc(b1-2)Man(a1-3)[Man(a1-6)]Man(b1-4)GlcNAc(b1-4)GlcNAc
# How it was run: as §1
# [23] = target: Gal(b1-4)GlcNAc(b1-2)Man(a1-6)Man(b1-4)GlcNAc(b1-4)GlcNAc
# How it was run: as §1
# [24] = target: Gal(b1-4)GlcNAc(b1-2)Man(a1-6)[GlcNAc(b1-2)Man(a1-3)]Man(b1-4)GlcNAc(b1-4)GlcNAc
# How it was run: as §1
# [25] = target: Gal(b1-4)GlcNAc(b1-2)Man(a1-6)[Man(a1-3)]Man(b1-4)GlcNAc(b1-4)GlcNAc
# How it was run: as §1
# [26] = target: Gal(b1-4)GlcNAc(b1-2)[Gal(b1-4)GlcNAc(b1-4)]Man(a1-3)[Gal(b1-4)GlcNAc(b1-2)Man(a1-6)]Man(b1-4)GlcNAc(b1-4)GlcNAc
# How it was run: as §1
# [27] = target: Gal(b1-4)GlcNAc(b1-2)[Gal(b1-4)GlcNAc(b1-4)]Man(a1-3)[Gal(b1-4)GlcNAc(b1-2)[Gal(b1-4)GlcNAc(b1-6)]Man(a1-6)]Man(b1-4)GlcNAc(b1-4)GlcNAc
# How it was run: as §1
# [28] = target: Gal(b1-4)GlcNAc(b1-2)[Gal(b1-4)GlcNAc(b1-4)]Man(a1-3)[GlcNAc(b1-4)][Gal(b1-4)GlcNAc(b1-2)Man(a1-6)]Man(b1-4)GlcNAc(b1-4)GlcNAc
# How it was run: as §1
# [29] = target: Gal(b1-4)GlcNAc(b1-2)[Gal(b1-4)GlcNAc(b1-4)]Man(a1-3)[GlcNAc(b1-4)][Gal(b1-4)GlcNAc(b1-2)[Gal(b1-4)GlcNAc(b1-6)]Man(a1-6)]Man(b1-4)GlcNAc(b1-4)GlcNAc
# How it was run: as §1
# [30] = target: Gal(b1-4)GlcNAc(b1-2)[Gal(b1-4)GlcNAc(b1-6)]Man(a1-6)[Gal(b1-4)GlcNAc(b1-2)Man(a1-3)]Man(b1-4)GlcNAc(b1-4)GlcNAc
# How it was run: as §1
# [31] = target: Gal(b1-4)GlcNAc(b1-2)[Gal(b1-4)GlcNAc(b1-6)]Man(a1-6)[Gal(b1-4)GlcNAc(b1-2)Man(a1-3)]Man(b1-4)GlcNAc(b1-4)[Fuc(a1-6)]GlcNAc
# How it was run: as §1
binder,measurement,setting,value
GS13971A-bth-447-22-447 (Bacteroides thetaiotaomicron) (protein) EDVDNERSKGMFSASQSGFSTIEVYDLGPLNKIDLSIAKAGLEDTGGTVTFSVEQSLLDSLNNADGTSYQLLPPECYTIENATYSVSPGGDRRVTGGSLVYDPHKIYNLCGFDELKYVLPLRVSSTGTPMNSDRTATLYGFIVKEAIVRLASTGGDFVVEGGTTTSPMNLDTEISFENEWDLTTSFATKGADYVDNYNSANSTYYIPLPSDFYTLPDVTIAKGKTTGGSAISLLGETLPPGNYLLPVSLGGLSGQGDASINIDKETVANYFVIKQGGPINRDHWTVTANTEEKTGEVSAAYPHNGQTISLIDGEINTFWHSKWQGGEVAPPYEIILDMGKENSVSQLGLIARQNALTSMNLEIYAGDDGETWNLIGKYFFDGSIKTEQMVPVKACDARWIRIYIPTLGSGSSVGHLAEIYVYGTDK,glycan array binding signal (z-score),[1],-0.77
same,glycan array binding signal (z-score),Gal(b1-3)GlcNAc6S,-1.01
same,glycan array binding signal (z-score),[2],0.215
same,glycan array binding signal (z-score),[3],-0.081
same,glycan array binding signal (z-score),[4],0.287
same,glycan array binding signal (z-score),[5],-0.179
same,glycan array binding signal (z-score),[6],1.09
same,glycan array binding signal (z-score),[7],1.25
same,glycan array binding signal (z-score),[8],0.107
same,glycan array binding signal (z-score),[9],-0.988
same,glycan array binding signal (z-score),[10],-0.915
same,glycan array binding signal (z-score),[11],-0.965
same,glycan array binding signal (z-score),Gal(b1-4)Gal,-0.961
same,glycan array binding signal (z-score),[12],-0.965
same,glycan array binding signal (z-score),[13],0.667
same,glycan array binding signal (z-score),Gal(b1-4)Glc,0.321
same,glycan array binding signal (z-score),Gal(b1-4)Glc6S,0.117
same,glycan array binding signal (z-score),Gal(b1-4)GlcNAc,-0.679
same,glycan array binding signal (z-score),[14],0.525
same,glycan array binding signal (z-score),Gal(b1-4)GlcNAc(b1-2)Man,0.536
same,glycan array binding signal (z-score),[15],-0.525
same,glycan array binding signal (z-score),[16],-1.03
same,glycan array binding signal (z-score),[17],-1.02
same,glycan array binding signal (z-score),[18],-0.704
same,glycan array binding signal (z-score),[19],-1.03
same,glycan array binding signal (z-score),[20],-1.02
same,glycan array binding signal (z-score),[21],-0.231
same,glycan array binding signal (z-score),[22],0.249
same,glycan array binding signal (z-score),[23],-0.242
same,glycan array binding signal (z-score),[24],-0.56
same,glycan array binding signal (z-score),[25],-0.174
same,glycan array binding signal (z-score),[26],1.31
same,glycan array binding signal (z-score),[27],-0.504
same,glycan array binding signal (z-score),[28],-0.902
same,glycan array binding signal (z-score),[29],-0.957
same,glycan array binding signal (z-score),[30],-0.704
same,glycan array binding signal (z-score),[31],0.053

# 2 consecutive records from above, quoted:
binder,measurement,setting,value
GS13971A-bth-447-22-447 (Bacteroides thetaiotaomicron) (protein) EDVDNERSKGMFSASQSGFSTIEVYDLGPLNKIDLSIAKAGLEDTGGTVTFSVEQSLLDSLNNADGTSYQLLPPECYTIENATYSVSPGGDRRVTGGSLVYDPHKIYNLCGFDELKYVLPLRVSSTGTPMNSDRTATLYGFIVKEAIVRLASTGGDFVVEGGTTTSPMNLDTEISFENEWDLTTSFATKGADYVDNYNSANSTYYIPLPSDFYTLPDVTIAKGKTTGGSAISLLGETLPPGNYLLPVSLGGLSGQGDASINIDKETVANYFVIKQGGPINRDHWTVTANTEEKTGEVSAAYPHNGQTISLIDGEINTFWHSKWQGGEVAPPYEIILDMGKENSVSQLGLIARQNALTSMNLEIYAGDDGETWNLIGKYFFDGSIKTEQMVPVKACDARWIRIYIPTLGSGSSVGHLAEIYVYGTDK,glycan array binding signal (z-score),[28],-0.902
same,glycan array binding signal (z-score),[29],-0.957
